Test [1] deals with ReNCell VM. In words: neuronal differentiation score (DCX+ cell fraction vs untreated, manual image score) (score (-3 to 3)); higher = more neuronal differentiation. The following applies: 2 uM, 2 weeks.
Test [2] concerns ReNCell VM. In words: dopaminergic neuron differentiation score (TH+ cell fraction vs untreated, manual image score) (score (0 to 3)); higher = more TH+ dopaminergic neuron differentiation. The following applies: 2 uM, 4 weeks, BDNF 10 ng/ml + GDNF 10 ng/ml.

Counter-ions that a name gives are not always drawn. The list shows a part of the results. Single values are uncertain here, since repeats match poorly.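 Human fetal ventral-midbrain neural progenitor line ReNCell VM, differentiated without mitogens. Images stained for doublecortin (early neurons) or tyrosine hydroxylase (dopaminergic neurons) were scored by blinded raters against untreated wells (0 = no change). Repeats and both raters were averaged, and compounds averaging 2 or higher were picked as hits for retesting.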

Regarding `COc1cccc(/C=N/N=C/c2cccc(OC)c2)c1`, in test [1] (library: Tocriscreen), the neuronal differentiation score is inactive: 0. For the same molecule, the “dopaminergic neuron differentiation score” value in test [2] (library: Tocriscreen) was inactive: 0.

For the molecule `CCCCNc1ccc(C(=O)OCCOCCOCCOCCOCCOCCOCCOCCOCCOC)cc1` [Benzonatate], the neuronal differentiation score in test [1] (library: Prestwick) is inactive: 0. Also, the “dopaminergic neuron differentiation score” value in test [2] (library: Prestwick) is inactive: 0.

Take `C=CCN1CCCC1CNC(=O)c1cc2nn[nH]c2cc1OC` (stereo not given) [Alizapride HCl]: the neuronal differentiation score in test [1] (library: Prestwick) was inactive: 0. In addition, in test [2] (library: Prestwick), the “dopaminergic neuron differentiation score” value is inactive: 0.

Take `CC1OC2(CS1)CN1CCC2CC1` (stereo not given) [Cevimeline hydrochloride]: the neuronal differentiation score in test [1] (library: Tocriscreen) is inactive: 0. Besides, the “dopaminergic neuron differentiation score” value in test [2] (library: Tocriscreen) was inactive: 0.

On to `NCCCC(O)(P(=O)(O)O)P(=O)(O)O` [Alendronate sodium], for which the neuronal differentiation score in test [1] (library: Prestwick) is inactive: 0. Also, in test [2] (library: Prestwick), the “dopaminergic neuron differentiation score” value was inactive: 0.

Regarding `COc1ccc2cc1Oc1ccc(cc1)C[C@H]1c3cc(c(OC)cc3CCN1C)Oc1c(OC)c(OC)cc3c1[C@H](C2)N(C)CC3` [Tetrandrine], the neuronal differentiation score in test [1] (library: Phytochemical) was inactive: 0. In addition, the “dopaminergic neuron differentiation score” value in test [2] (library: Phytochemical) was inactive: 0.

For `c1ccc(-c2ccc(C(c3ccccc3)n3ccnc3)cc2)cc1` (stereo not given), in test [1] (library: Spectrum), the neuronal differentiation score was inactive: 0. For the same molecule, the “dopaminergic neuron differentiation score” value in test [2] (library: Spectrum) was inactive: 1.

For `CCc1ccc(CCOc2ccc(CC3SC(=O)NC3=O)cc2)nc1` (stereo not given) [Pioglitazone], the neuronal differentiation score in test [1] (library: Prestwick) is inactive: 0. For the same molecule, in test [2] (library: Prestwick), the “dopaminergic neuron differentiation score” value is inactive: 0.

As for `CCCCc1nc2ccn(Cc3cccs3)c(=O)c2n1Cc1ccc(-c2ccccc2-c2nn[nH]n2)cc1`, the neuronal differentiation score in test [1] (library: Tocriscreen) is inactive: 0. Also, in test [2] (library: Tocriscreen), the “dopaminergic neuron differentiation score” value was inactive: 0.

Take `CC1=C(C(=O)O)N2C(=O)[C@@H](NC(=O)[C@H](N)C3=CCC=CC3)[C@H]2SC1`: the neuronal differentiation score in test [1] (library: Spectrum) is inactive: 0. For the same molecule, in test [2] (library: Spectrum), the “dopaminergic neuron differentiation score” value was inactive: 0.

For the molecule `C[C@H](NC(=O)c1sccc1OCc1ccc(Cl)cc1)c1ccccc1`, in test [1] (library: Tocriscreen), the neuronal differentiation score is inactive: 0. Moreover, the “dopaminergic neuron differentiation score” value in test [2] (library: Tocriscreen) was inactive: 0.

In the case of `C[n+]1ccccc1/C=N/O` [Pralidoxime chloride], in test [1] (library: Prestwick), the neuronal differentiation score was inactive: 0. In addition, the “dopaminergic neuron differentiation score” value in test [2] (library: Prestwick) is inactive: 0.

As to `COC(=O)C(N)CS` (stereo not given), the neuronal differentiation score in test [1] (library: Spectrum) is inactive: 0. Further, the “dopaminergic neuron differentiation score” value in test [2] (library: Spectrum) is inactive: 0.

In the case of `O=c1ccn([C@@H]2O[C@H](CO)[C@@H](O)[C@H]2O)c(=O)[nH]1`, the neuronal differentiation score in test [1] (library: Spectrum) is inactive: 0. In test [2] (library: Spectrum), the “dopaminergic neuron differentiation score” value is inactive: 0.

Regarding `CCN1CCN(C(=O)N[C@@H](C(=O)N[C@@H]2C(=O)N3[C@@H]2SC(C)(C)[C@@H]3C(=O)O)c2ccccc2)C(=O)C1=O` [Piperacillin sodium salt], the neuronal differentiation score in test [1] (library: Prestwick) was inactive: 0. The “dopaminergic neuron differentiation score” value in test [2] (library: Prestwick) is inactive: 0.

`O=C(O)CCNC(=O)c1ccccc1`: in test [1] (library: Spectrum), the neuronal differentiation score is inactive: 0. The “dopaminergic neuron differentiation score” value in test [2] (library: Spectrum) was inactive: 1.

For `Cc1cc(C(C)(C)CC(C)(C)C)ccc1OCCOCC[N+](C)(C)Cc1ccccc1` [Methyl benzethonium chloride], the neuronal differentiation score in test [1] (library: Prestwick) is inactive: 0. The “dopaminergic neuron differentiation score” value in test [2] (library: Prestwick) is inactive: 0.

On to `Nc1nc2[nH]cc(CCc3ccc(C(=O)N[C@@H](CCC(=O)O)C(=O)O)cc3)c2c(=O)[nH]1`, for which, in test [1] (library: Spectrum), the neuronal differentiation score was inactive: 0. Also, the “dopaminergic neuron differentiation score” value in test [2] (library: Spectrum) is inactive: 0.

Turning to `C=C(C)[C@H]1COc2cc3oc(=O)ccc3cc2O1`, the neuronal differentiation score in test [1] (library: Spectrum) is inactive: 0. Moreover, in test [2] (library: Spectrum), the “dopaminergic neuron differentiation score” value is inactive: 0.

Consider `O=C(/C=C/c1ccc(O)c(O)c1)O[C@H](Cc1ccc(O)c(O)c1)C(=O)O`, for which the neuronal differentiation score in test [1] (library: Spectrum) is inactive: 0. Also, the “dopaminergic neuron differentiation score” value in test [2] (library: Spectrum) was inactive: 0.

With `CCOC(=O)[C@H](CCc1ccccc1)N[C@@H](C)C(=O)N1CCC[C@H]1C(=O)O` [Enalapril maleate], the neuronal differentiation score in test [1] (library: Prestwick) was inactive: 0. Moreover, the “dopaminergic neuron differentiation score” value in test [2] (library: Prestwick) is inactive: 0.

For `NC(=O)NC1NC(=O)NC1=O` (stereo not given), the neuronal differentiation score in test [1] (library: Spectrum) was inactive: 0. In addition, in test [2] (library: Spectrum), the “dopaminergic neuron differentiation score” value was inactive: 0.

In the case of `COc1cc2c(cc1OC)C(c1c[nH]c3ccccc13)NCC2` (stereo not given), the neuronal differentiation score in test [1] (library: Natural) was inactive: 0. Further, the “dopaminergic neuron differentiation score” value in test [2] (library: Natural) is inactive: 0.

In the case of `CCn1cc(C(=O)O)c(=O)c2cnc(N3CCNCC3)nc21`, the neuronal differentiation score in test [1] (library: Spectrum) was inactive: 0. In addition, the “dopaminergic neuron differentiation score” value in test [2] (library: Spectrum) is inactive: 1.

Regarding `Cc1cc(C2CCCCC2)n(O)c(=O)c1` [Ciclopirox ethanolamine], the neuronal differentiation score in test [1] (library: Prestwick) is inactive: 0. For the same molecule, in test [2] (library: Prestwick), the “dopaminergic neuron differentiation score” value was inactive: 0.

For the origin of these results see the supplement of paper PMC4635364.
